The other results are listed elsewhere or left out.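 Rule for the calls: active = dose-dependent thermal stabilisation significant by F-test of dose-response against flat model at 10% FDR; inactive = not significant.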

Protein sequences, listed by entry. Tags and fused reporters are not part of them. Lines headed by an entry give the natural chain unless they say otherwise; changes in a name come on top.
UniProt Q13561, whole entry: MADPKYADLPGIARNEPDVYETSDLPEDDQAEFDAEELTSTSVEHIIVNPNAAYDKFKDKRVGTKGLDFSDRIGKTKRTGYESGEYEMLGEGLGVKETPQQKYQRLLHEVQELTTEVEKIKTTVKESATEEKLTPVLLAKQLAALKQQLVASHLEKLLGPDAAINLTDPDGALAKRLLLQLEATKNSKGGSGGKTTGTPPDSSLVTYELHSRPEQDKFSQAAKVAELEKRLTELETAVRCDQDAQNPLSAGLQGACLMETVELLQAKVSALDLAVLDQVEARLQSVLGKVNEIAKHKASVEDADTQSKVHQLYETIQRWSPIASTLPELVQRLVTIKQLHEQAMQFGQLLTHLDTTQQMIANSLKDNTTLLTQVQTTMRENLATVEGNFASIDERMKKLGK
UniProt O75937: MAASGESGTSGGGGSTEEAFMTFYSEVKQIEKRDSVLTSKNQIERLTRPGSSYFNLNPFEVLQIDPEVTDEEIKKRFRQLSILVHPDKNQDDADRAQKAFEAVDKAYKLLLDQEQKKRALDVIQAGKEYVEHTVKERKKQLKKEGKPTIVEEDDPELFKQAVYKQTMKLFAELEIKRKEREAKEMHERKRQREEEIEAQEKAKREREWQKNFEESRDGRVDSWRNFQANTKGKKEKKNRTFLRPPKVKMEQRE
UniProt Q92466: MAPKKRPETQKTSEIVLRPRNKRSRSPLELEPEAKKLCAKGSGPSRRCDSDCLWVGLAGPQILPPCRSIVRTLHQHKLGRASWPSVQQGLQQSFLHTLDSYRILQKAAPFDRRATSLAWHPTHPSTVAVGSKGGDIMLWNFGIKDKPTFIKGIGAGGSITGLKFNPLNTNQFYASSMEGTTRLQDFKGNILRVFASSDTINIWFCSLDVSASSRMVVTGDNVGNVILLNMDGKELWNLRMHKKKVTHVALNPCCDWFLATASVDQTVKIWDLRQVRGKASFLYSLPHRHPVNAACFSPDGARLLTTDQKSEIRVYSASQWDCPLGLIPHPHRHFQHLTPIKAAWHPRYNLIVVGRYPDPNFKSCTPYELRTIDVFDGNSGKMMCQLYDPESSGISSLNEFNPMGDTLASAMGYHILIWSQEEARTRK
UniProt P81605: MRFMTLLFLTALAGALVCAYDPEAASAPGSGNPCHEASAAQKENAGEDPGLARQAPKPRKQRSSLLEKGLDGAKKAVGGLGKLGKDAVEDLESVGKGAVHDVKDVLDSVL
UniProt O60869: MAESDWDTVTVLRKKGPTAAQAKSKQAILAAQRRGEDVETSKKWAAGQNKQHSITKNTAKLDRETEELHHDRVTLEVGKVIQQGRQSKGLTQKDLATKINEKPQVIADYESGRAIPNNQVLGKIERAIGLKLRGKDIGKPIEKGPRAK
UniProt Q86Y56: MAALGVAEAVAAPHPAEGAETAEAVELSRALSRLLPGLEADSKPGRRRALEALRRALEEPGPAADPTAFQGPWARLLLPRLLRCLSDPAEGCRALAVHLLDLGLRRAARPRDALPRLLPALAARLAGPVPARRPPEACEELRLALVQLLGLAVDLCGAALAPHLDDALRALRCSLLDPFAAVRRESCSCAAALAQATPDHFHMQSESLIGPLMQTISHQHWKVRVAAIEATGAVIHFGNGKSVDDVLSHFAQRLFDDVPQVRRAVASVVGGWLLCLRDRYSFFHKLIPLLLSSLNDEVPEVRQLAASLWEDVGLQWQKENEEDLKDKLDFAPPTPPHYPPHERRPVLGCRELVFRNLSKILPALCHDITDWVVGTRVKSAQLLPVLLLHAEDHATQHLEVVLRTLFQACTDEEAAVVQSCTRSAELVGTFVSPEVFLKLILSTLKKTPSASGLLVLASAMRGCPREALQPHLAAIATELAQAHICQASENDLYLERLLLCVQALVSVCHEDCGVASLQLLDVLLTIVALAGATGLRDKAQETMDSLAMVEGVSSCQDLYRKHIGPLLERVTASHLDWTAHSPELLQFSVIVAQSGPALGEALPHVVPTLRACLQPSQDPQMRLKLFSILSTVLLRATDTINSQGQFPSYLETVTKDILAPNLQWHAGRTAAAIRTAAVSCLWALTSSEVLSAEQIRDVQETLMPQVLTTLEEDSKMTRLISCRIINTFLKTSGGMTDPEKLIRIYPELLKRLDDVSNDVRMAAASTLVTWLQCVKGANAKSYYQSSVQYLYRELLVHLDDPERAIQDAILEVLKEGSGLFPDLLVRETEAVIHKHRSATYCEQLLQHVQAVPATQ
UniProt P17812: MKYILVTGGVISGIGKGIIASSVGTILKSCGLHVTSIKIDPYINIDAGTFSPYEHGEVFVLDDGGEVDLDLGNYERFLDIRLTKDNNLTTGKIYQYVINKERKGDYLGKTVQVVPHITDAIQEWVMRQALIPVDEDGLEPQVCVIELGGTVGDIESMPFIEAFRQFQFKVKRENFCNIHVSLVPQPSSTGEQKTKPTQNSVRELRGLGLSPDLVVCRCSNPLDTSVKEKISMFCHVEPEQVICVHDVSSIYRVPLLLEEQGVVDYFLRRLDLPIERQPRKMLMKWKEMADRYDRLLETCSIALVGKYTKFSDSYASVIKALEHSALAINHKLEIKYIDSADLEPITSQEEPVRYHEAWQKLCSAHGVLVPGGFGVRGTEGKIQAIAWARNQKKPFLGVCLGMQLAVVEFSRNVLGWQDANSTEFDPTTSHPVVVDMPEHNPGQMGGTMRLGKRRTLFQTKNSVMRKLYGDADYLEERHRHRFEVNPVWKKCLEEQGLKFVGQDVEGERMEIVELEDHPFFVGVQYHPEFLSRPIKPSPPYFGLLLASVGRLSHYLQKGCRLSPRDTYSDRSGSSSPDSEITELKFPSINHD
UniProt P63167, whole entry: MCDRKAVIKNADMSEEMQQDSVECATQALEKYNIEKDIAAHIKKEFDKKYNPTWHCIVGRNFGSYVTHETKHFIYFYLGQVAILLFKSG
UniProt Q6XZF7: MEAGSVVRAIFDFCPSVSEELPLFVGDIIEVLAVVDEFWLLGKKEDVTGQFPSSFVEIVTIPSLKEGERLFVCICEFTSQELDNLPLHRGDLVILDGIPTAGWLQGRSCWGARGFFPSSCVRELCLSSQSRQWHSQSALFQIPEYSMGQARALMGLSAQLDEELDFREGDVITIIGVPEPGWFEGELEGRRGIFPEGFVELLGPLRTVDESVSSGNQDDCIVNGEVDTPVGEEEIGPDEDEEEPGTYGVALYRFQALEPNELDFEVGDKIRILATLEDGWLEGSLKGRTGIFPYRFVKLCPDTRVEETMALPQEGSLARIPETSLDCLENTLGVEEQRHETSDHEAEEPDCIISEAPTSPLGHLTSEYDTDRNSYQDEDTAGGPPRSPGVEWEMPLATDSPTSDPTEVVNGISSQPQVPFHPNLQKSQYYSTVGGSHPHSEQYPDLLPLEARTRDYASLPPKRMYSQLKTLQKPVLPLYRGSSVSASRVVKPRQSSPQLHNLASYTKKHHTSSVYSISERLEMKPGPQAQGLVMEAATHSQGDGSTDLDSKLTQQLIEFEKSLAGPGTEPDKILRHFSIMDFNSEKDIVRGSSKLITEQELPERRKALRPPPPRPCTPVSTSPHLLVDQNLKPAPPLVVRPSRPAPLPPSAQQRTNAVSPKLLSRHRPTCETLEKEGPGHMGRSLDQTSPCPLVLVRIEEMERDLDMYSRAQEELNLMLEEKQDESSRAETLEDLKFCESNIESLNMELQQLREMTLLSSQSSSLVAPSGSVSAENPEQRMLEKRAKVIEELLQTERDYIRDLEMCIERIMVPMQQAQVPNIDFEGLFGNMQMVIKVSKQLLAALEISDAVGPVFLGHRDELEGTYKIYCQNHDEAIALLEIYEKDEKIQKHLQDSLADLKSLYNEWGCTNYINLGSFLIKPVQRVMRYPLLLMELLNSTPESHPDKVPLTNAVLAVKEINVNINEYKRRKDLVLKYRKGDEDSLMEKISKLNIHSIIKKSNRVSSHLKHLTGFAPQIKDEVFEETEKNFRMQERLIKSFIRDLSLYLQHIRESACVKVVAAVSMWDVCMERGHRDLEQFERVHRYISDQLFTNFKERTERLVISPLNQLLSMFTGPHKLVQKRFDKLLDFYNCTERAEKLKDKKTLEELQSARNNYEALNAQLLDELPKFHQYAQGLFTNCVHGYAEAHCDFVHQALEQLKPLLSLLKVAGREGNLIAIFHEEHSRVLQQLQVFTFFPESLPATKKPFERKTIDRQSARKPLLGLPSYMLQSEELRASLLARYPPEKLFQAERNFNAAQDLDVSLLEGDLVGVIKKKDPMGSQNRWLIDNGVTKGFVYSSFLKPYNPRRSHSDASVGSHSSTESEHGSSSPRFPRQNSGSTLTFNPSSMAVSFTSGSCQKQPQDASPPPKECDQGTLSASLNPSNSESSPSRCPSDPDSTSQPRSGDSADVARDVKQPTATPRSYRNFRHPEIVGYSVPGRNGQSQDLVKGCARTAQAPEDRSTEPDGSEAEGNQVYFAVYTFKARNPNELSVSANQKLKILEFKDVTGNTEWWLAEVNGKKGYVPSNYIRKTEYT
UniProt Q5VWQ8: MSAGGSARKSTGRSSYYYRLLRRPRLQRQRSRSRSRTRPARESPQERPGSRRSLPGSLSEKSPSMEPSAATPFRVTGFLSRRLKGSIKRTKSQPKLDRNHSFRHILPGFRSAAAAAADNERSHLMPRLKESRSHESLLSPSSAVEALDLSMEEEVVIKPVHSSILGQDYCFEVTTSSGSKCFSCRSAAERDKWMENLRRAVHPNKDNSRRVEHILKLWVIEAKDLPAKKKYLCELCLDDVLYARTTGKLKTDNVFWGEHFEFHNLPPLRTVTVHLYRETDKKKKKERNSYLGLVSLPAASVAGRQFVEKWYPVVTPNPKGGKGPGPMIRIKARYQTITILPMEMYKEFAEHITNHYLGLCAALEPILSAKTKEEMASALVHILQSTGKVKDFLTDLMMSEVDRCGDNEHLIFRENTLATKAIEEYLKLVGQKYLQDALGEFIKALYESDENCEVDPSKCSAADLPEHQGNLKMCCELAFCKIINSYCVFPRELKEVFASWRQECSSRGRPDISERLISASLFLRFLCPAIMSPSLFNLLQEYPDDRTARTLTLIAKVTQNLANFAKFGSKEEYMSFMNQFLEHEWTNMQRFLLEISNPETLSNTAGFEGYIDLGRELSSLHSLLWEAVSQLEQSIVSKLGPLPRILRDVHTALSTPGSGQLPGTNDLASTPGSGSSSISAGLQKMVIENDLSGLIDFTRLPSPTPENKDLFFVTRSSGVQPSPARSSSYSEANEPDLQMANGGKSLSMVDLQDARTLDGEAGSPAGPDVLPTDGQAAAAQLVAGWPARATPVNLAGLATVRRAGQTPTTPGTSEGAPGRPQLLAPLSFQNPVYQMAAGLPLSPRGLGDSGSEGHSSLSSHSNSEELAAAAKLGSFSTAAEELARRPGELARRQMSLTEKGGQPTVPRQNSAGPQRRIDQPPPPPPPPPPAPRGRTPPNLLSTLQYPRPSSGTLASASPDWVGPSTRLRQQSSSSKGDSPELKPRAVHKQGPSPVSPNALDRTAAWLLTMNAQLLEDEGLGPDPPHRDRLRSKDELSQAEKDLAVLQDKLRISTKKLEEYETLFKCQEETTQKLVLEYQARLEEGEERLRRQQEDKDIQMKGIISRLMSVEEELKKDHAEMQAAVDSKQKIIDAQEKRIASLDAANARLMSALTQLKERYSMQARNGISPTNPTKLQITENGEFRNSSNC
UniProt O43583: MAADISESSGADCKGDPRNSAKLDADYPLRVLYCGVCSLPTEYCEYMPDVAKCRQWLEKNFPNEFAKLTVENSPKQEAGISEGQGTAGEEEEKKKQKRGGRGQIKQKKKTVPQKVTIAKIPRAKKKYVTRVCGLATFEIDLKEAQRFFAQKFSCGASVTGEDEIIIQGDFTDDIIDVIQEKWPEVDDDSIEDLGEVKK
UniProt Q9NZJ0: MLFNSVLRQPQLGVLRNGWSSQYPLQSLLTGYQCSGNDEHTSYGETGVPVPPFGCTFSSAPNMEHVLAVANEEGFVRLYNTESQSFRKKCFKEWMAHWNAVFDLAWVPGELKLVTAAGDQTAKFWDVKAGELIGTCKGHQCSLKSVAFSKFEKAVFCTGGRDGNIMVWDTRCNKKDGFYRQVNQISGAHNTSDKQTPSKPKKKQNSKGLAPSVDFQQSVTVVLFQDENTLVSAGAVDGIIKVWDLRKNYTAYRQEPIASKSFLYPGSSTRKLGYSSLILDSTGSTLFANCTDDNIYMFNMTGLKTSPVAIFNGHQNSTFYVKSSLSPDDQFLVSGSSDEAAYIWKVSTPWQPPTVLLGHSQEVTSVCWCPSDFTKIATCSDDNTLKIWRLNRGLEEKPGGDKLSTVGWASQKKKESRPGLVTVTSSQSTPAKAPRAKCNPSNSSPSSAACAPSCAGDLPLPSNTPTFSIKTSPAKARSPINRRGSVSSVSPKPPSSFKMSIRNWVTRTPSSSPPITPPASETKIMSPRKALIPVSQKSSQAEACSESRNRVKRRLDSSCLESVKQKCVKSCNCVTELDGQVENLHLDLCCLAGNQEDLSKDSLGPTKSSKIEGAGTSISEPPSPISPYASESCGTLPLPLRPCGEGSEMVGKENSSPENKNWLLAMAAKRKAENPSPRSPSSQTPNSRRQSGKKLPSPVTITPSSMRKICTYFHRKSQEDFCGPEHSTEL

Compound in this experiment: Nc1nc2c(ncn2[C@@H]2O[C@H](COP(=O)(O)OP(=O)(O)OP(=O)(O)O)[C@@H](O)[C@H]2O)c(=O)[nH]1
Put plainly: dose-dependent thermal stabilisation call (2D-TPP, DLPTP, 10% FDR) (binary (1 = stabilised)); higher = stabilised by the compound. Conditions: system: Jurkat gel-filtered lysate; concentration range 1-500 µM.
Regarding DYM (UniProt Q7RTS9), the “dose-dependent thermal stabilisation call” value was active: 1. Regarding DCTN2 (UniProt Q13561), the “dose-dependent thermal stabilisation call” value was inactive: 0.

As to DNAJC8 (UniProt O75937), the “dose-dependent thermal stabilisation call” value was inactive: 0. The figure for DENND1B (UniProt Q6P3S1) is inactive: 0; for DDB2 (UniProt Q92466) it is inactive: 0.

As to DSG2 (UniProt Q14126), the “dose-dependent thermal stabilisation call” value was inactive: 0. For CSNK1A1 (UniProt P48729) the value was active: 1. For CTSD (UniProt P07339) the value was inactive: 0; for CSTF3 (UniProt Q12996), inactive: 0. The figure for DCD (UniProt P81605) is inactive: 0.

In the case of EDF1 (UniProt O60869), the “dose-dependent thermal stabilisation call” value was inactive: 0.

Turning to DHX36 (UniProt Q9H2U1), the “dose-dependent thermal stabilisation call” value was inactive: 0. Regarding DYNC1LI1 (UniProt Q9Y6G9), the “dose-dependent thermal stabilisation call” value was active: 1. For DUSP12 (UniProt Q9UNI6) the value was inactive: 0; for DNAAF5 (UniProt Q86Y56), inactive: 0; for DPYSL2 (UniProt Q16555), inactive: 0. As to DPP3 (UniProt Q9NY33), the “dose-dependent thermal stabilisation call” value was inactive: 0. On to EED (UniProt O75530), for which the “dose-dependent thermal stabilisation call” value was inactive: 0.

Turning to DUS4L (UniProt O95620), the “dose-dependent thermal stabilisation call” value is inactive: 0. In the case of DDX39B (UniProt Q13838), the “dose-dependent thermal stabilisation call” value is inactive: 0. For DYRK1A (UniProt Q13627) the value was active: 1; for DCPS (UniProt Q96C86), inactive: 0; for CTPS1 (UniProt P17812), inactive: 0. The figure for DYNLL1 (UniProt P63167) is inactive: 0; for DNMBP (UniProt Q6XZF7) it is inactive: 0; for ECHS1 (UniProt P30084) it is inactive: 0. The figure for DOCK10 (UniProt Q96BY6) is inactive: 0.

Consider DAB2IP (UniProt Q5VWQ8), for which the “dose-dependent thermal stabilisation call” value is inactive: 0. Take CTNNBL1 (UniProt Q8WYA6): the “dose-dependent thermal stabilisation call” value is inactive: 0.

On to DDX47 (UniProt Q9H0S4), for which the “dose-dependent thermal stabilisation call” value was inactive: 0. The figure for DENR (UniProt O43583) is inactive: 0; for DOCK11 (UniProt Q5JSL3) it is inactive: 0. For DICER1 (UniProt Q9UPY3), the “dose-dependent thermal stabilisation call” value was active: 1. For CUL1 (UniProt Q13616), the “dose-dependent thermal stabilisation call” value was inactive: 0. With DTL (UniProt Q9NZJ0), the “dose-dependent thermal stabilisation call” value is inactive: 0.

For DNAJB6 (UniProt O75190), the “dose-dependent thermal stabilisation call” value was inactive: 0.

Source of the values: the supplement of paper PMC7666118.
